Assay results from US20260306460A1, “COMPOSITION FOR REMOVING AND INHIBITING SENESCENT CELLS, AND USES THEREOF” (LIFECEUTIX CO., LTD., priority 2023, published 2026).
The name of at least one read-out is uncertain.

Key:
[1] = tested on: HMGN1 secreted from senescent human cells; assay: HMGN1 secretion (ELISA) from doxorubicin-induced senescent human cells, Example 11; format: cell-based; details: senescent untreated = 100%; 30 μM; 90 μM for LX-305, 1302, 1603, 2005, 2702, 2901, 3106; 270 μM for LX-1103, 2007
[2] = tested on: HMGN1 secreted from senescent cells; assay: HMGN1 secretion (ELISA) from doxorubicin-induced senescent cells, Example 17; format: cell-based, human; details: senescent untreated = 100%; 30 μM; 90 μM for LX-5211, 5433, 6530, 9105, 9118, 9321, 9602; 2.4 mM for LX-9336
[3] = tested on: HMGN1 secreted from senescent A549 cells; assay: HMGN1 secretion (ELISA) from senescent A549 cells, Example 18, Table 14; format: cell-based, human; details: doxorubicin-senescent A549, without test compound (DMSO) = 100%; 30 μM (LX-5211, LX-5433, LX-6530, LX-6800, LX-9105, LX-9118, LX-9131, LX-9136, LX-9302, LX-9321, LX-9565, LX-9602 at 90 μM; LX-9336 at 2.4 mM)

Compound	HMGN1 [1]	HMGN1 [2]	HMGN1 [3]
C[C@H]1[C@H](C)CC[C@]2(C(=O)O)CC[C@]3(C)C(=CC[C@@H]4[C@@]5(C)C[C@@H](O)[C@H](O)C(C)(C)[C@@H]5CC[C@]43C)[C@H]12 [LX-2002, Corosolic acid]	305%		
C[C@@H]1CC[C@@]23C[C@H](O)C(=O)[C@@]2(O)[C@]1(C)[C@H](OC(=O)CCl)C[C@@H](C1=CCn2c(=O)n(-c4ccccc4)c(=O)n2C1)[C@@H]3C [LX-1801, (2S,3aS,4S,5R,7R,8S,8aS,11R)-7-(1,3-Dioxo-2-phenyl-2,3,5,8-tetrahydro-1H-[1,2,4]triazolo[1,2-a]pyridazin-6-yl)-2,3a-dihydroxy-4,8,11-trimethyl-3-oxooctahydro-1H-4,8a-propanoazulen-5-yl 2-Chloroacetate]	291%		
CCn1c(C#CCNc2ccccc2)cc2cc(CNC)ccc21 [LX-905]	318%		
Cc1[nH]nc(C(F)(F)F)c1Cc1sc2c(c1C(=O)N1C[C@](C)(O)CO1)c(=O)n(C)c(=O)n2C(C)C [LX-3203]	315%		
CC1(C)CC[C@]2(NC(=O)C(C)(F)F)CC[C@]3(C)[C@H](C(=O)C=C4[C@@]5(C)C=C(C#N)C(=O)C(C)(C)[C@@H]5CC[C@]43C)[C@@H]2C1 [LX-2101, Omaveloxolone]	274%		
O=C(C(C[N+](=O)[O-])=NO)N1CCN(C(c2ccc(Cl)cc2)c2ccc(Cl)cc2)CC1 [LX-403]	275%		
NCC(=O)CCC(=O)O [LX-1103, 5-Aminolevulinic acid]	172%		
Cc1cccc2c1NC(=O)[C@@H](NC(=O)[C@H](CCC(F)(F)F)[C@H](CCC(F)(F)F)C(N)=O)N=C2c1cccc(F)c1 [LX-6514]		281%	326%
Cc1ncc([N+](=O)[O-])n1CCO [LX-9107, Metronidazole]		252%	275%
CCN(CCCOc1ccc2c(Nc3cc(CC(=O)Nc4cccc(F)c4)n[nH]3)ncnc2c1)CCOP(=O)(O)O [LX-6205, Barasertib]		293%	213%
CC(=O)NCCOC(=O)[C@H](Oc1cccc(C(F)(F)F)c1)c1ccc(Cl)cc1 [LX-9409, Arhalofenate]		221%	218%
COC(=O)[C@]12CCC(C)(C)C[C@H]1[C@H]1C(=O)C=C3[C@@]4(C)C=C(C#N)C(=O)C(C)(C)[C@@H]4CC[C@@]3(C)[C@]1(C)CC2 [LX-2102, Bardoxolone methyl]	288%		
C[C@@H](Nc1nc(N[C@H](C)C(F)(F)F)nc(-c2cccc(Cl)n2)n1)C(F)(F)F [LX-8726, Vorasidenib]		235%	257%
CCCCC[C@H](O)CC[C@@H]1[C@H]2Cc3cccc(OCC(=O)O)c3C[C@H]2C[C@H]1O [LX-9713, Treprostinil]		263%	258%
C#CCC(Cc1cnc2nc(N)nc(N)c2n1)c1ccc(C(=O)N[C@@H](CCC(=O)O)C(=O)O)cc1 (stereo partly shown) [LX-7405, Pralatrexate]		261%	205%
O=C1[C@H](CC[C@H](O)c2ccc(F)cc2)[C@@H](c2ccc(O)cc2)N1c1ccc(F)cc1 [LX-9321, Ezetimibe]		256%	317%
CN1CCCC1 [LX-9425, N-methyl pyrrolidine]		218%	235%
O=C1Nc2ccccc2/C1=C1/Nc2ccc(C(=O)NCC3CCN(C(=O)CCl)CC3)cc2C1=O [LX-5328]		242%	261%
Nc1cc(F)ccc1NC(=O)c1ccc(CNC(=O)/C=C/c2cccnc2)cc1 [LX-6809, Chidamide]		325%	275%
COc1ccc(CN2C3CC2CN(c2ccc(-c4cc(OCC(C)(C)O)cn5ncc(C#N)c45)cn2)C3)cn1 [LX-6988, Selpercatinib]		282%	225%
N=C(NC(=N)N1CCCC1)Nc1ccc(OC(F)(F)F)cc1 [LX-7403, Lixumistat]		225%	234%
NS(=O)(=O)NCCNc1nonc1C(=NO)Nc1ccc(F)c(Br)c1 [LX-8804, Epacadostat]		256%	248%
CN(C)c1cccc(-c2c3c(=O)n(-c4ccccc4Cl)[nH]c3cc(=O)n2C)c1 [LX-9744, Setanaxib]		214%	229%
CCCCCCCC/C(=C\CCCCCCCC(=O)O)[N+](=O)[O-] [LX-7111, 10-Nitrooleic acid]		271%	204%
Cn1cc(C2=C(c3cn(C4CCN(Cc5ccccn5)CC4)c4ccccc34)C(=O)NC2=O)c2ccccc21 [LX-7135, Enzastaurin]		208%	248%
Cc1cccc([C@H](C)c2cnc[nH]2)c1C [LX-6807, Dexmedetomidine]		279%	292%
C=C(CN1Cc2c(ccc3ccc(-c4cc(NC(C)=O)cc(OC)c4)cc23)C1=O)C(N)=O [LX-5907]		258%	233%

Compound	HMGN1 [1]	HMGN1 [2]	HMGN1 [3]
CCOc1cc(CC(=O)N[C@@H](CC(C)C)c2ccccc2N2CCCCC2)ccc1C(=O)O [LX-9302, Repaglinide]		323%	247%
CC12CCN(CC1)C(CN(C1CC1)S(C)(=O)=O)C2=O (stereo not shown) [LX-5707]		258%	237%
C#Cc1nc(C(=O)N2[C@@H](CCCC)Cc3cc(C=C)ccc3[C@@H]2c2ccc(NC34CC5CC(CC(C5)C3)C4)cc2)cs1 [LX-5362]		211%	242%
Nc1ccc(/C=C/C(=O)NCc2cc3cc(-c4ccc(C(=O)N5CCC(F)(F)CC5)cc4)cc(-c4ccc(F)cc4)c3o2)cn1 [LX-8812, Padnarsertib]		281%	275%
CC[C@H]1[C@@H](O)[C@@H]2[C@H](CC[C@]3(C)[C@@H]([C@H](C)CCC(=O)O)CC[C@@H]23)[C@@]2(C)CC[C@@H](O)C[C@@H]12 [LX-9732, Obeticholic Acid]		224%	241%
CN(NC(=O)CC(=O)NN(C)C(=S)c1ccccc1)C(=S)c1ccccc1 [LX-6501, Elesclomol]		311%	239%
O=C1C2CCN(CC2)C1(CO)COCc1ccccc1 (stereo not shown) [LX-5711]		252%	204%
CN(C)C[C@@H]1CCn2cc(c3ccccc32)C2=C(C(=O)NC2=O)c2cn(c3ccccc23)CCO1 [LX-9339, Ruboxistaurin]		222%	263%
C=C1CC[C@@H]2[C@](C)(CO)[C@H](O)CC[C@@]2(C)[C@@H]1C/C=C1/C(=O)OC[C@H]1O [LX-6800, Andrographolide]		239%	302%
CC(C)(C)OC(=O)NC1CCN(c2ccc(-c3cnc4[nH]cc(C(=O)C(=O)NCCc5ccccn5)c4c3)cn2)CC1 [LX-5341]		238%	232%
C=C(C#N)CNc1c(OC)ccc2ccc(-c3ccc(S(C)(=O)=O)cn3)cc12 [LX-5906]		277%	256%
NC(=O)c1ncn([C@@H]2O[C@H](CO)[C@@H](O)[C@H]2O)n1 [LX-6537, Ribavirin]		328%	289%
C[C@@H](C(=O)Nc1ccc(Cl)cc1)[C@H]1CC[C@@H](c2ccnc3ccc(F)cc32)CC1 [LX-8805, Linrodostat]		259%	226%
Nc1ccc(O)c(C(=O)O)c1 [LX-9118, 5-aminosalicylic acid]		295%	203%
CS(=O)(=O)c1ccc(Oc2cc(F)cc(C#N)c2)c2c1[C@H](O)[C@H](F)[C@@H]2F [LX-7451, Belzutifan]		219%	232%
C=C(C)[C@@H]1CC[C@]2(C)CC[C@]3(C)[C@H](CC[C@@H]4[C@@]5(C)CC[C@H](O)C(C)(C)[C@@H]5CC[C@]43C)[C@@H]12 [LX-5433, Lupeol]		260%	299%
[2H]C([2H])([2H])OCC1(CO)C(=O)C2CCN1CC2 (stereo not shown) [LX-5721]		255%	268%
O=c1sn(-c2cccc3ccccc23)c(=O)n1Cc1ccccc1 [LX-7121, Tideglusib]		278%	317%
Nc1nc2nc[nH]c2c(=S)[nH]1 [LX-6530, Thioguanine]		225%	270%
COc1cc(Nc2ncc3c(n2)-c2ccc(Cl)cc2C(c2c(F)cccc2OC)=NC3)ccc1C(=O)O [LX-6203, Alisertib]		220%	318%
C[C@H]1Oc2cc(cnc2N)-c2c(nn(C)c2C#N)CN(C)C(=O)c2ccc(F)cc21 [LX-5449, Lorlatinib]		309%	305%
COC(=O)[C@H]1Cc2c([nH]c3ccccc23)[C@H](c2ccc(S(C)(=O)=O)cc2)N1C(=O)CCl [LX-5401, methyl (1S,3R)-2-(2-chloroacetyl)-1-(4-(methylsulfonyl)phenyl)-2,3,4,9-tetrahydro-1H-pyrido[3,4-b]indole-3-carboxylate]		214%	300%
COc1cc(Cc2cnc(N)nc2N)cc(OC)c1OC [LX-9114, Trimethoprim]		218%	250%
COc1ccc(C[C@@H](C)[C@@H](C)Cc2ccc(OC)c(OC)c2)cc1OC [LX-7122, Terameprocol]		278%	259%
O=C1C2CCN(CC2)C1CNC(=O)C(F)(F)F (stereo not shown) [LX-5701]		286%	246%
C[S+]([O-])CCCCN=C=S (stereo not shown) [LX-7103, Sulforaphane]		318%	241%
NC(=O)c1ccc(-c2cc3c(NC4CCS(=O)(=O)CC4)cccc3n2CC(F)(F)F)cc1 [LX-5904]		245%	241%
